# Measurements from doi:10.1101/2023.02.09.527857.
# Amino acid sequences for entries named in this document (tags omitted).
# UniProt P63104: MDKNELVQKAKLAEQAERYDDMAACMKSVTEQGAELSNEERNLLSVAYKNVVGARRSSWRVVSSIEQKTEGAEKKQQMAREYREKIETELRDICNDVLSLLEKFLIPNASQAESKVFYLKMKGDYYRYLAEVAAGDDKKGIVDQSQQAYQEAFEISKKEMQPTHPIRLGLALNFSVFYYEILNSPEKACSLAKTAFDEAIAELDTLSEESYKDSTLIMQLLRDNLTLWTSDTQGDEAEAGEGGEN
# UniProt P31946: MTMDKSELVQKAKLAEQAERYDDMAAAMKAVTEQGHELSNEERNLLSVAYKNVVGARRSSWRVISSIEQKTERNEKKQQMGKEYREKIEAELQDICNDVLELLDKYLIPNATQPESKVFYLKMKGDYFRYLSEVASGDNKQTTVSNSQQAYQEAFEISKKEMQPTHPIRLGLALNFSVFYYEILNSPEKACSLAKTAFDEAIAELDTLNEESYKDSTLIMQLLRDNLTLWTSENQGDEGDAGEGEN
# Changes are numbered by the printed parent chain. Names and notes keep the numbering of the source. These are yes or no findings as the source states them, for the method shown. Binding seen in cells or lysates may run through a third protein. Some results given as binding are weak or reduced against the parent protein; the word gives no strength. For part of these data: Tags and fused reporters may be left off the sequences shown.
# T1: myc-tagged 14-3-3γ (human) (UniProt P61981)
# T1 sequence: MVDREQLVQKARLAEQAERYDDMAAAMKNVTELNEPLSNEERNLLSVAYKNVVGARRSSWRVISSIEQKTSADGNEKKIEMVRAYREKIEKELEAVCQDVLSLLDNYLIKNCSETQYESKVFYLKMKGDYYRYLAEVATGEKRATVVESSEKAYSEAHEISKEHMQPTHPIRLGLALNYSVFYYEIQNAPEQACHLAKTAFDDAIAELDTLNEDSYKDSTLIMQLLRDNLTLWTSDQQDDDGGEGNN
# T2: myc-tagged 14-3-3η (human) (UniProt Q04917)
# T2 sequence: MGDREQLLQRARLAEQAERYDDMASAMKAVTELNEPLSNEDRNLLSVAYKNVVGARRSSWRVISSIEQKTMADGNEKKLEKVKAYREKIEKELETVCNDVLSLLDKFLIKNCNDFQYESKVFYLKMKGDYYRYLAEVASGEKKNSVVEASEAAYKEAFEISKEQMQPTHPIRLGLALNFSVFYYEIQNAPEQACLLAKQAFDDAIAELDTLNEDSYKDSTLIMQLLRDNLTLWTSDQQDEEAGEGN
# T3: FLAG-tagged wild-type SMAUG1 (SMAUG1-HisTEV2xFLAG) (human) (UniProt Q9UPU9)
# T3 sequence: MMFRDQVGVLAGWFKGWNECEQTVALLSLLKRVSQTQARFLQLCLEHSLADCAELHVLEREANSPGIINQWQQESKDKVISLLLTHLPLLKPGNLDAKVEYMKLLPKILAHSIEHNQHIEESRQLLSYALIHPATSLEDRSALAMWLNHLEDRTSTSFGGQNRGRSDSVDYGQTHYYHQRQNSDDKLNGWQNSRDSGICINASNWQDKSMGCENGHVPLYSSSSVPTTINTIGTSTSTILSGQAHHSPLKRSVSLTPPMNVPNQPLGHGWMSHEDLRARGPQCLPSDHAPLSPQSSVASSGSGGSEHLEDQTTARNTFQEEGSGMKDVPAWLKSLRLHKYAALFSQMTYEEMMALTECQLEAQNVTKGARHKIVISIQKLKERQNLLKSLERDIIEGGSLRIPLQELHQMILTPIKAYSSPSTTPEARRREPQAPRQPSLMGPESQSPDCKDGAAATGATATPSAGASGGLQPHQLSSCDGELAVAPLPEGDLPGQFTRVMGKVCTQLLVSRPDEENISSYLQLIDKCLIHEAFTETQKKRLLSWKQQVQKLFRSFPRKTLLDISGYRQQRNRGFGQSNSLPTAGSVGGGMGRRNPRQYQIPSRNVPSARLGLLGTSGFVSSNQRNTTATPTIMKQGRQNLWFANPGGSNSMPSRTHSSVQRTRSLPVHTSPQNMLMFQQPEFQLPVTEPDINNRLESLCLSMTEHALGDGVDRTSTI
# B1: SMAUG1-FLAG S168A (protein, UniProt Q9UPU9-1 1-718)
# chain: T3 sequence with S168A
# B2: SMAUG1-FLAG S254A (protein, UniProt Q9UPU9-1 1-718)
# chain: T3 sequence with S254A
# B3: SMAUG1-FLAG S580A (protein, UniProt Q9UPU9-1 1-718)
# chain: T3 sequence with S580A
# B4: SMAUG1-FLAG S665A (protein, UniProt Q9UPU9-1 1-718)
# chain: T3 sequence with S665A
# B5: SMAUG1-FLAG S168/254A (protein, UniProt Q9UPU9-1 1-718)
# chain: T3 sequence with S168A, S254A
# B6: SMAUG1-FLAG S254/580A (protein, UniProt Q9UPU9-1 1-718)
# chain: T3 sequence with S254A, S580A
# B7: SMAUG1-FLAG S254/665A (protein, UniProt Q9UPU9-1 1-718)
# chain: T3 sequence with S254A, S665A
# B8: SMAUG1-FLAG S580/665A (protein, UniProt Q9UPU9-1 1-718)
# chain: T3 sequence with S580A, S665A
# B9: endogenous SMAUG1 (protein, UniProt Q9UPU9 1-718)
# chain: T3 sequence
# B10: FLAG-tagged wild-type SMAUG1 (SMAUG1-HisTEV2xFLAG) (protein, UniProt Q9UPU9-1 1-718)
# chain: T3 sequence
# B11: SMAUG1-FLAG S168/254/580A (protein, UniProt Q9UPU9-1 1-718)
# chain: T3 sequence with S168A, S254A, S580A
# B12: SMAUG1-FLAG S254/580/665A (protein, UniProt Q9UPU9-1 1-718)
# chain: T3 sequence with S254A, S580A, S665A
# B13: SMAUG1-FLAG S168/254/580/665A (quad S/A mutant) (protein, UniProt Q9UPU9-1 1-718)
# chain: T3 sequence with S168A, S254A, S580A, S665A
# B14: 14-3-3η (detected with anti-14-3-3η in the FLAG-SMAUG1 precipitate) (protein, UniProt Q04917 1-246)
# chain: T2 sequence
# Target: T1, myc-tagged 14-3-3γ (human)
# Assay: co-IP
row,Molecule,binding
1,B1,binds
2,B2,binds
3,B3,binds
4,B4,binds
5,B5,binds weakly
6,B6,binds weakly
7,B7,binds weakly
8,B8,binds weakly
9,B9,binds
10,B10,binds
11,B11,no binding
12,B12,no binding
13,B13,no binding

# Target: T2, myc-tagged 14-3-3η (human)
# Assay: co-IP
row,Molecule,binding
1,B9,binds

# Target: T3, FLAG-tagged wild-type SMAUG1 (SMAUG1-HisTEV2xFLAG) (human)
# Assay: co-IP
row,Molecule,binding
1,B14,binds

# Target: myc-tagged 14-3-3ζ (human) (UniProt P63104)
# Assay: co-IP
row,Molecule,binding
1,B9,binds

# Target: myc-tagged 14-3-3β (human) (UniProt P31946)
# Assay: co-IP
row,Molecule,binding
1,B9,binds

# Target: T3, FLAG-tagged wild-type SMAUG1 (SMAUG1-HisTEV2xFLAG) (human)
# Assay: co-IP
# Remark: another data set of the same source
row,Molecule,binding
1,14-3-3ζ (detected with anti-14-3-3ζ in the FLAG-SMAUG1 precipitate) (from UniProt P63104 1-245),binds
